Assay results: US9517222B2, “Method for the treatment of senile dementia of the Alzheimer's type” (Phenomenome Discoveries Inc., priority 2007, dated 2016)
Some values come without a unit; they compare only within their column.

Tests used:
[1] = Serum ethanolamine phospholipid levels in human cohorts (dementia severity, post-mortem pathology, age) by flow-injection MS/MS
[2] = Serum ethanolamine phospholipid ratios to PtdEt 16:0/18:0 (M01) in human cohorts
[3] = serum, females, post mortem SDAT
[4] = serum, females, post mortem control

CCCCC/C=C\C/C=C\C/C=C\C/C=C\CCCC(=O)OC(COCCCCCCCCCCCCCCCC)COP(=O)(O)OCCN (centres unmarked) [Metabolite M07, Plasmanyl 16:0/20:4]
Ratio of serum levels ([1]; AD, All to CN, Male): 0.709
Ratio of serum levels ([1]; ADAS 5-19 to CN, Male): 0.753
Ratio of serum levels ([1]; ADAS 20-39 to 5-19, Male): 0.935
Ratio of serum levels ([1]; ADAS 20-39 to CN, Male): 0.704
Ratio of serum levels ([1]; ADAS 40-70 to 5-19, Male): 0.783
Ratio of serum levels ([1]; ADAS 40-70 to 20-39, Male): 0.837
Ratio of serum levels ([1]; ADAS 40-70 to CN, Male): 0.589
Serum level, Mean ([1]; Cognitive Normal, Female): 0.056
Average serum level, Mean ([1]; Cognitive Normal, Male): 0.062
Serum level, Mean ([1]; Post Mortem Ctl, Male): 0.012
Serum level, Mean ([1]; Post Mortem SDAT Male): 0.009
Ratio of serum levels ([1]; Post mortem SDAT vs Control, Male): 0.451
Serum level, Mean ([1]; SDAT, ADAS 5-19, Female): 0.044
Average serum level, Mean ([1]; SDAT, ADAS 5-19, Male): 0.047
Serum level, Mean ([1]; SDAT, ADAS 20-39, Female): 0.042
Average serum level, Mean ([1]; SDAT, ADAS 20-39, Male): 0.044
Serum level, Mean ([1]; SDAT, ADAS 40-70, Female): 0.036
Average serum level, Mean ([1]; SDAT, ADAS 40-70, Male): 0.036
Serum level, Mean ([1]; SDAT_all, Female): 0.041
Average serum level, Mean ([1]; SDAT_all, Male): 0.044
Ratio, ADAS 5-19 to CN, Female ([1]; serum level ratio, females, ADAS 5-19 vs CN): 0.798
Ratio, ADAS 20-39 to 5-19, Female ([1]; serum level ratio, females, ADAS 20-39 vs ADAS 5-19): 0.944
Ratio, ADAS 20-39 to CN, Female ([1]; serum level ratio, females, ADAS 20-39 vs CN): 0.753
Ratio, ADAS 40-70 to 5-19, Female ([1]; serum level ratio, females, ADAS 40-70 vs ADAS 5-19): 0.822
Ratio, ADAS 40-70 to 20-39, Female ([1]; serum level ratio, females, ADAS 40-70 vs ADAS 20-39): 0.871
Ratio, ADAS 40-70 to CN, Female ([1]; serum level ratio, females, ADAS 40-70 vs CN): 0.656
Ratio, 50-59 vs. 40-49, Female ([1]; serum level ratio, females, age 50-59 vs 40-49): 0.798
Ratio, 60-69 vs. 40-49, Female ([1]; serum level ratio, females, age 60-69 vs 40-49): 0.718
Ratio, 70+ vs. 40-49, Female ([1]; serum level ratio, females, age 70+ vs 40-49): 0.726
Ratio, AD, All to CN, Female ([1]; serum level ratio, females, all AD vs cognitively normal): 0.732
Ratio, Autopsy AD vs. Control, Female ([1]; serum level ratio, females, autopsy AD vs control): 0.530
Ratio, 50-59 vs. 40-49, Male ([1]; serum level ratio, males, age 50-59 vs 40-49): 1.198
Ratio, 60-69 vs. 40-49, Male ([1]; serum level ratio, males, age 60-69 vs 40-49): 1.164
Ratio, 70+ vs. 40-49, Male ([1]; serum level ratio, males, age 70+ vs 40-49): 1.133
Mean serum level, Age Ctl, 30-39, Female ([1]; serum, females, age 30-39): 0.061
Mean serum level, Age Ctl, 40-49, Female ([1]; serum, females, age 40-49): 0.071
Mean serum level, Age Ctl, 50-59, Female ([1]; serum, females, age 50-59): 0.057
Mean serum level, Age Ctl, 60-69, Female ([1]; serum, females, age 60-69): 0.051
Mean serum level, Age Ctl, 70+, Female ([1]; serum, females, age 70+): 0.052
Mean serum level, Post Mortem SDAT, Female [1, 3]: 0.005
Mean serum level, Post Mortem Ctl, Female [1, 4]: 0.016
Mean serum level, Age Ctl, 30-39, Male ([1]; serum, males, age 30-39): 0.078
Mean serum level, Age Ctl, 40-49, Male ([1]; serum, males, age 40-49): 0.053
Mean serum level, Age Ctl, 50-59, Male ([1]; serum, males, age 50-59): 0.063
Mean serum level, Age Ctl, 60-69, Male ([1]; serum, males, age 60-69): 0.061
Mean serum level, Age Ctl, 70+, Male ([1]; serum, males, age 70+): 0.060
Ratio of ethanolamine phospholipid ratios to M01 between cohorts ([2]; AD, All to CN, Male): 0.673
Ratio of ethanolamine phospholipid ratios to M01 between cohorts ([2]; ADAS 5-19 to CN, Male): 0.715
Ratio of ethanolamine phospholipid ratios to M01 between cohorts ([2]; ADAS 20-39 to CN, Male): 0.676
Ratio of ethanolamine phospholipid ratios to M01 between cohorts ([2]; ADAS 40-70 to CN, Male): 0.580
Average serum ethanolamine phospholipid ratio to M01, Mean ([2]; Cognitive Normal, Male, serum): 0.554
Average serum ethanolamine phospholipid ratio to M01, Mean ([2]; SDAT, ADAS 5-19, Male, serum): 0.396
Average serum ethanolamine phospholipid ratio to M01, Mean ([2]; SDAT, ADAS 20-39, Male, serum): 0.375
Average serum ethanolamine phospholipid ratio to M01, Mean ([2]; SDAT, ADAS 40-70, Male, serum): 0.321
Average serum ethanolamine phospholipid ratio to M01, Mean ([2]; SDAT_all, Male, serum): 0.373
Ethanolamine Phospholipid Ratio to M01, Mean, Age Ctl, 30-39, Female ([2]; human serum, females aged 30-39): 0.618
Ethanolamine Phospholipid Ratio to M01, Mean, Age Ctl, 40-49, Female ([2]; human serum, females aged 40-49): 0.667
Ethanolamine Phospholipid Ratio to M01, Mean, Age Ctl, 50-59, Female ([2]; human serum, females aged 50-59): 0.582
Ratio of Ethanolamine Phospholipid Ratio to M01, 50-59 vs. 40-49, Female ([2]; human serum, females aged 50-59 vs. females aged 40-49): 0.873
Ethanolamine Phospholipid Ratio to M01, Mean, Age Ctl, 60-69, Female ([2]; human serum, females aged 60-69): 0.435
Ratio of Ethanolamine Phospholipid Ratio to M01, 60-69 vs. 40-49, Female ([2]; human serum, females aged 60-69 vs. females aged 40-49): 0.652
Ethanolamine Phospholipid Ratio to M01, Mean, Age Ctl, 70+_Female ([2]; human serum, females aged 70+): 0.430
Ratio of Ethanolamine Phospholipid Ratio to M01, 70+ vs. 40-49, Female ([2]; human serum, females aged 70+ vs. females aged 40-49): 0.644
Ratio of Ethanolamine Phospholipid Ratio to M01, 50-59 vs. 40-49, Male ([2]; human serum, males aged 50-59 vs. males aged 40-49): 1.177
Ratio of Ethanolamine Phospholipid Ratio to M01, 60-69 vs. 40-49, Male ([2]; human serum, males aged 60-69 vs. males aged 40-49): 0.970
Ratio of Ethanolamine Phospholipid Ratio to M01, 70+ vs. 40-49, Male ([2]; human serum, males aged 70+ vs. males aged 40-49): 0.927
Ratio of ethanolamine phospholipid ratio to M01, ADAS 5-19 to CN, Female ([2]; serum, females, ADAS 5-19 vs cognitive normal): 0.890
Ratio of ethanolamine phospholipid ratio to M01, ADAS 20-39 to 5-19, Female ([2]; serum, females, ADAS 20-39 vs ADAS 5-19): 0.895
Ratio of ethanolamine phospholipid ratio to M01, ADAS 20-39 to CN, Female ([2]; serum, females, ADAS 20-39 vs cognitive normal): 0.796
Ratio of ethanolamine phospholipid ratio to M01, ADAS 40-70 to 5-19, Female ([2]; serum, females, ADAS 40-70 vs ADAS 5-19): 0.745
Ratio of ethanolamine phospholipid ratio to M01, ADAS 40-70 to 20-39, Female ([2]; serum, females, ADAS 40-70 vs ADAS 20-39): 0.833
Ratio of ethanolamine phospholipid ratio to M01, ADAS 40-70 to CN, Female ([2]; serum, females, ADAS 40-70 vs cognitive normal): 0.663
Ethanolamine phospholipid ratio to M01, Mean, SDAT, ADAS 5-19, Female ([2]; serum, females, SDAT ADAS 5-19): 0.422
Ethanolamine phospholipid ratio to M01, Mean, SDAT, ADAS 20-39, Female ([2]; serum, females, SDAT ADAS 20-39): 0.377
Ethanolamine phospholipid ratio to M01, Mean, SDAT, ADAS 40-70, Female ([2]; serum, females, SDAT ADAS 40-70): 0.314
Ratio of ethanolamine phospholipid ratio to M01, AD, All to CN, Female ([2]; serum, females, all AD vs cognitive normal): 0.776
Ethanolamine phospholipid ratio to M01, Mean, SDAT_all Female ([2]; serum, females, all SDAT): 0.368
Ratio of ethanolamine phospholipid ratio to M01, Autopsy AD vs. Control, Female ([2]; serum, females, autopsy AD vs post mortem control): 0.752
Ethanolamine phospholipid ratio to M01, Mean, Cognitive Normal, Female ([2]; serum, females, cognitive normal): 0.474
Ethanolamine phospholipid ratio to M01, Mean, Post Mortem SDAT Female [2, 3]: 0.077
Ethanolamine phospholipid ratio to M01, Mean, Post Mortem Ctl, Female [2, 4]: 0.102
Ratio of ethanolamine phospholipid ratio to M01, ADAS 20-39 to 5-19, Male ([2]; serum, males, SDAT ADAS 20-39 vs ADAS 5-19): 0.946
Ratio of ethanolamine phospholipid ratio to M01, ADAS 40-70 to 5-19, Male ([2]; serum, males, SDAT ADAS 40-70 vs ADAS 5-19): 0.811
Ratio of ethanolamine phospholipid ratio to M01, ADAS 40-70 to 20-39, Male ([2]; serum, males, SDAT ADAS 40-70 vs ADAS 20-39): 0.857
Ethanolamine phospholipid ratio to M01, Mean, Age Ctl, 30-39, Male ([2]; serum, males, age control 30-39): 0.683
Ethanolamine phospholipid ratio to M01, Mean, Age Ctl, 40-49, Male ([2]; serum, males, age control 40-49): 0.493
Ethanolamine phospholipid ratio to M01, Mean, Age Ctl, 50-59, Male ([2]; serum, males, age control 50-59): 0.581
Ethanolamine phospholipid ratio to M01, Mean, Age Ctl, 60-69, Male ([2]; serum, males, age control 60-69): 0.479
Ethanolamine phospholipid ratio to M01, Mean, Age Ctl, 70+_Male ([2]; serum, males, age control 70+): 0.457
Ethanolamine phospholipid ratio to M01, Mean, Post Mortem SDAT Male ([2]; serum, males, post mortem SDAT): 0.059
Ratio of ethanolamine phospholipid ratio to M01, SDAT vs Control (post mortem, males) ([2]; serum, males, post mortem SDAT vs post mortem control): 0.549
Ethanolamine phospholipid ratio to M01, Mean, Post Mortem Ctl, Male ([2]; serum, males, post mortem control): 0.107
